The supplement of paper PMC12889115
Some of the results follow. These are raw signals, not scaled to a control.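 In the initial screen, polymyxin B was used at a concentration that permeabilizes Salmonella's outer membrane but not its inner membrane. Maximum growth was set by DMSO wells with or without polymyxin B. Since plates varied, data were ranked per plate, and compounds giving the lowest OD600 advanced as hits.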

Tested on: Salmonella enterica serovar Typhimurium SL1344
Test: bacterial growth OD600 after 18 h with compound and polymyxin B; higher = more bacterial growth (less inhibition)
Conditions: 50 µM, Mueller-Hinton broth

| Compound | bacterial growth OD600 (polymyxin B 1 µg/mL) | bacterial growth OD600 (polymyxin B 0.75 µg/mL) |
| --- | --- | --- |
| CN(Cc1ccccn1)C(=O)c1cc(COc2cccc(C(F)(F)F)c2)[nH]n1 | 1.14 | – |
| Clc1ccccc1CC1CN(c2cnccn2)CCO1 (stereo unspecified) | – | 0.744 |
| O=C(C1CC=CCC1)N1CCc2[nH]nc(-c3ccc(C(F)(F)F)cc3)c2C1 (stereo unspecified) | – | 0.695 |
| c1cncc(CN(CCN2CCCCC2)CC2CCCN(C3CCCC3)C2)c1 (stereo unspecified) | 0.895 | – |
| Cc1cc(CN(C)c2ccc(C(=O)NCCC3CCCCN3C)cn2)on1 (stereo unspecified) | 0.994 | – |
| CC(C)c1ccc(NC2CCCN(C(=O)c3ccc(Cn4cnnn4)cc3)C2)cc1 (stereo unspecified) | 0.918 | – |
| COc1ccc(C(CC(=O)N(C)Cc2nc(C)cs2)c2ccccc2)cc1 (stereo unspecified) | 0.688 | – |
| COc1ccc(OC2CCN(C(C)=O)CC2)c(C(=O)NCc2cc3ccccc3[nH]2)c1 | 1.08 | – |
| CCOc1cc(CN2Cc3cc(Cl)ccc3OC(C)C2)ccc1O (stereo unspecified) | – | 0.674 |
| COc1cc(CNC2COc3ccccc3C2)cc(OC)c1OC (stereo unspecified) | 1.04 | – |
| Cn1ccnc1CN1C[C@H]2OC(=O)N(CCc3cccc(Cl)c3)[C@H]2C1 | 0.972 | – |
| COc1ccc(CCN2CCC(CN(C)C(=O)c3ccc(N(C)C)cc3)CC2)cc1 | 1.23 | – |
| Cc1ccccc1N1CCN(C2CCCN(C/C=C/c3ccc(F)cc3)C2)CC1 (stereo unspecified) | 1.09 | – |
| CCCN1CCC(N2C[C@H]3OC(=O)N(CCc4cccc(Cl)c4)[C@H]3C2)CC1 | 0.892 | – |
| O=C(CSc1ccccc1)Nc1cnn(CC(=O)NC(CCn2ccnc2)c2ccccc2)c1 (stereo unspecified) | – | 0.856 |
| NC(=O)C1(C(=O)NC2CCCN(CCc3ccccc3)C2)CC1 (stereo unspecified) | 0.949 | – |
| Cc1occc1C(=O)NC1CCCN(C2CCCCCC2)C1 (stereo unspecified) | 0.914 | – |
| O=C(COc1ccccc1)Nc1ccc(N2CCC(NC(c3ccccn3)C(F)(F)F)CC2)cc1 (stereo unspecified) | – | 0.557 |
| CCNC(=O)c1cn(CCc2ccccc2)cc(C(=O)N(C)Cc2cccs2)c1=O | – | 0.811 |
| C[C@@H]1CN(C2(C(=O)NCCc3cscn3)Cc3ccccc3C2)C[C@H](C)O1 | 1.07 | – |
| CN(C)CCN1C(=O)CC(CC(=O)N2CCN(Cc3ccccn3)CC2)(c2ccccc2Cl)C1=O (stereo unspecified) | – | 0.64 |

Six consecutive compounds from above:

| Compound | bacterial growth OD600 (polymyxin B 1 µg/mL) | bacterial growth OD600 (polymyxin B 0.75 µg/mL) |
| --- | --- | --- |
| COc1ccc(OC2CCN(C(C)=O)CC2)c(C(=O)NCc2cc3ccccc3[nH]2)c1 | 1.08 | – |
| CCOc1cc(CN2Cc3cc(Cl)ccc3OC(C)C2)ccc1O (stereo unspecified) | – | 0.674 |
| COc1cc(CNC2COc3ccccc3C2)cc(OC)c1OC (stereo unspecified) | 1.04 | – |
| Cn1ccnc1CN1C[C@H]2OC(=O)N(CCc3cccc(Cl)c3)[C@H]2C1 | 0.972 | – |
| COc1ccc(CCN2CCC(CN(C)C(=O)c3ccc(N(C)C)cc3)CC2)cc1 | 1.23 | – |
| Cc1ccccc1N1CCN(C2CCCN(C/C=C/c3ccc(F)cc3)C2)CC1 (stereo unspecified) | 1.09 | – |
